From article PMC5389439
Results are given in words; binding and its absence hold for the method and conditions named. In cells and extracts the contact can be indirect. Some results given as binding are weak or reduced against the parent protein; the word gives no strength. For part of these data: Where a sequence is shown, tags or fusion partners need not be part of it.

The chains behind the UniProt entries cited, without tags or fusion partners.
UniProt P46938: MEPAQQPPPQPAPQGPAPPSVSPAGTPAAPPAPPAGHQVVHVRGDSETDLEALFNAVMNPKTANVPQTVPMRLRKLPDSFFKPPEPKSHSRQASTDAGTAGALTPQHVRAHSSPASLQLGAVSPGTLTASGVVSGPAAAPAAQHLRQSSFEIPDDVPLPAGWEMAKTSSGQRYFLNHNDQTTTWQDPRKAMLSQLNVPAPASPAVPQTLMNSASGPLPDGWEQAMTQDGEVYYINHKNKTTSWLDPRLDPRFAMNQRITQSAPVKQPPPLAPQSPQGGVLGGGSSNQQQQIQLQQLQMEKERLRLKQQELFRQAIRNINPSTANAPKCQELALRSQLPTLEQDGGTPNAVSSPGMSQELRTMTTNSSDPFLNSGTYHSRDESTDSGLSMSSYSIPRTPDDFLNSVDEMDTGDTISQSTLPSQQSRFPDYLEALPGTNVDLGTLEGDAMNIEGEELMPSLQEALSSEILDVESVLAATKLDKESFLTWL
UniProt Q62296: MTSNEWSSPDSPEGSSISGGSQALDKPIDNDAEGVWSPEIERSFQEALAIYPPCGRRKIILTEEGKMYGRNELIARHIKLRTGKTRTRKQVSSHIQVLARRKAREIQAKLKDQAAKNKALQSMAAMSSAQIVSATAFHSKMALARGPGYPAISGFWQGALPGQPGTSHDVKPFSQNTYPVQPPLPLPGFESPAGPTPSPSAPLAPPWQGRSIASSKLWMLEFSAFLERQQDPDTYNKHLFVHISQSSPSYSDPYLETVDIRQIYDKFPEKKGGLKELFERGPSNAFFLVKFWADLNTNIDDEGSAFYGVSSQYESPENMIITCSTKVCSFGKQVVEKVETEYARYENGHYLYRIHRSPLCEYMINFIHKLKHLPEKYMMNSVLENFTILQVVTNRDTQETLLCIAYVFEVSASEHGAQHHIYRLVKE
UniProt Q08943: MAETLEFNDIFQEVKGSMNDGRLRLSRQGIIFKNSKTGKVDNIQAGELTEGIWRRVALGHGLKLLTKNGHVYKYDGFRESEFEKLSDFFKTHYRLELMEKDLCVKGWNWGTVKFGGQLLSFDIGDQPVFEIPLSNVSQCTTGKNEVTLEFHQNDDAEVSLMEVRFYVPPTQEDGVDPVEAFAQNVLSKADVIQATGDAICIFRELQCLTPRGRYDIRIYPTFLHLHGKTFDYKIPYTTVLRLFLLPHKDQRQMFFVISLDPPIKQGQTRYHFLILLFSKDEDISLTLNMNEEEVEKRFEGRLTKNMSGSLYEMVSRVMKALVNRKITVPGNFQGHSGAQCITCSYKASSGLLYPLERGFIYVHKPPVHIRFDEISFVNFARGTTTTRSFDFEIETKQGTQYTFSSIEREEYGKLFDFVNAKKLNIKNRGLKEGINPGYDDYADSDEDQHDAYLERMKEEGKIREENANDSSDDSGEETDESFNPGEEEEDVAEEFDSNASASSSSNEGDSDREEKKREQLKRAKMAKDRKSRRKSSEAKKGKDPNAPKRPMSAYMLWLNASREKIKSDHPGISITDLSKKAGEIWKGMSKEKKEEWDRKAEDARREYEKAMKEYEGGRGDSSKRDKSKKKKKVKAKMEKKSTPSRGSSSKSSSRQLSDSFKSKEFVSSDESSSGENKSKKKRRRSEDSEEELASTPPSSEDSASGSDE

Columns and labels:
Test in all cases: co-IP; tagged proteins co-expressed in 293T cells; lysis buffer 10 mM HEPES pH 7.6, 250 mM NaCl, 0.1% NP40, 5 mM EDTA; IP with tag antibody and protein-G PLUS-agarose, 30 min at 4 °C; blot with tag antibodies; with or without co-expressed HA-Yap or Myc-NICD1
[1] = biological target: T1, SBNO1-V5 (human Strawberry Notch 1, V5-tagged) (human) (UniProt A3KN83)
T1 sequence: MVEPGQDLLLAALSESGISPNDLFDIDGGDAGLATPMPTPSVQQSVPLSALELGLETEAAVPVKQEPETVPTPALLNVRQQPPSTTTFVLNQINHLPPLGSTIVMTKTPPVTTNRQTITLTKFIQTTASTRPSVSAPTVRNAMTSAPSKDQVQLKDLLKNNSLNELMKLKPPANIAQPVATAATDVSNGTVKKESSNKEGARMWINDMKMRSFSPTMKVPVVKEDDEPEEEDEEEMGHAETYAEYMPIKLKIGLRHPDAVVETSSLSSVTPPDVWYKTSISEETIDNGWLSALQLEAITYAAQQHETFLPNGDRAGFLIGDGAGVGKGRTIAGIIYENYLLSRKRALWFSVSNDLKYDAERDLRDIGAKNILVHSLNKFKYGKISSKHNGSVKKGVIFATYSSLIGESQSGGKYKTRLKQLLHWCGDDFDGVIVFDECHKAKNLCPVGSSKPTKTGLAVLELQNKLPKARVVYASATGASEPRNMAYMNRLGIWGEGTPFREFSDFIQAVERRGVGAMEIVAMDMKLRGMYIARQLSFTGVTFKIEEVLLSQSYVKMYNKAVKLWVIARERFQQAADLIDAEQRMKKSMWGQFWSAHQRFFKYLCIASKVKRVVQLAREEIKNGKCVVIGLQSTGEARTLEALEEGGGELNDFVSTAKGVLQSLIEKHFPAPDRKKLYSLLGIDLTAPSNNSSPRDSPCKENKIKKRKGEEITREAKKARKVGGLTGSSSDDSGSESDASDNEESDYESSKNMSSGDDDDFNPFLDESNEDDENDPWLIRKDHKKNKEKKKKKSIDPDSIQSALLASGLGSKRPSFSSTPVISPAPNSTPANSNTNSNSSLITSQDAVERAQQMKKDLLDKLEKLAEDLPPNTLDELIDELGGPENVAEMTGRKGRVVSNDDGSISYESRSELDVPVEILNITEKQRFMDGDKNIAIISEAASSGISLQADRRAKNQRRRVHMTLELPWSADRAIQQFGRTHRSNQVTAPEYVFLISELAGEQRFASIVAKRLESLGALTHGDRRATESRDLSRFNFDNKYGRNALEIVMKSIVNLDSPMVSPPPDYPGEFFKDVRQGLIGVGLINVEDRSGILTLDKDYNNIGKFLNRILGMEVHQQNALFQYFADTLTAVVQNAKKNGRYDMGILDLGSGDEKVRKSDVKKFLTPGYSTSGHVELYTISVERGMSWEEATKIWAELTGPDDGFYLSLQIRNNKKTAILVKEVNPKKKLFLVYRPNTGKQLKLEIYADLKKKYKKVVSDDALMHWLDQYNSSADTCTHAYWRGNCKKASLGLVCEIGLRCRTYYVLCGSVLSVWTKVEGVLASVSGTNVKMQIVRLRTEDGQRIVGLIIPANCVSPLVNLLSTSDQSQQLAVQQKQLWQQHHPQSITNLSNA

HA-mYap (mouse) = HA-mYap (mouse) (UniProt P46938)
[2] = biological target: T2, SBNO1-Myc (human Strawberry Notch 1, Myc-tagged) (human) (UniProt A3KN83)
T2 sequence: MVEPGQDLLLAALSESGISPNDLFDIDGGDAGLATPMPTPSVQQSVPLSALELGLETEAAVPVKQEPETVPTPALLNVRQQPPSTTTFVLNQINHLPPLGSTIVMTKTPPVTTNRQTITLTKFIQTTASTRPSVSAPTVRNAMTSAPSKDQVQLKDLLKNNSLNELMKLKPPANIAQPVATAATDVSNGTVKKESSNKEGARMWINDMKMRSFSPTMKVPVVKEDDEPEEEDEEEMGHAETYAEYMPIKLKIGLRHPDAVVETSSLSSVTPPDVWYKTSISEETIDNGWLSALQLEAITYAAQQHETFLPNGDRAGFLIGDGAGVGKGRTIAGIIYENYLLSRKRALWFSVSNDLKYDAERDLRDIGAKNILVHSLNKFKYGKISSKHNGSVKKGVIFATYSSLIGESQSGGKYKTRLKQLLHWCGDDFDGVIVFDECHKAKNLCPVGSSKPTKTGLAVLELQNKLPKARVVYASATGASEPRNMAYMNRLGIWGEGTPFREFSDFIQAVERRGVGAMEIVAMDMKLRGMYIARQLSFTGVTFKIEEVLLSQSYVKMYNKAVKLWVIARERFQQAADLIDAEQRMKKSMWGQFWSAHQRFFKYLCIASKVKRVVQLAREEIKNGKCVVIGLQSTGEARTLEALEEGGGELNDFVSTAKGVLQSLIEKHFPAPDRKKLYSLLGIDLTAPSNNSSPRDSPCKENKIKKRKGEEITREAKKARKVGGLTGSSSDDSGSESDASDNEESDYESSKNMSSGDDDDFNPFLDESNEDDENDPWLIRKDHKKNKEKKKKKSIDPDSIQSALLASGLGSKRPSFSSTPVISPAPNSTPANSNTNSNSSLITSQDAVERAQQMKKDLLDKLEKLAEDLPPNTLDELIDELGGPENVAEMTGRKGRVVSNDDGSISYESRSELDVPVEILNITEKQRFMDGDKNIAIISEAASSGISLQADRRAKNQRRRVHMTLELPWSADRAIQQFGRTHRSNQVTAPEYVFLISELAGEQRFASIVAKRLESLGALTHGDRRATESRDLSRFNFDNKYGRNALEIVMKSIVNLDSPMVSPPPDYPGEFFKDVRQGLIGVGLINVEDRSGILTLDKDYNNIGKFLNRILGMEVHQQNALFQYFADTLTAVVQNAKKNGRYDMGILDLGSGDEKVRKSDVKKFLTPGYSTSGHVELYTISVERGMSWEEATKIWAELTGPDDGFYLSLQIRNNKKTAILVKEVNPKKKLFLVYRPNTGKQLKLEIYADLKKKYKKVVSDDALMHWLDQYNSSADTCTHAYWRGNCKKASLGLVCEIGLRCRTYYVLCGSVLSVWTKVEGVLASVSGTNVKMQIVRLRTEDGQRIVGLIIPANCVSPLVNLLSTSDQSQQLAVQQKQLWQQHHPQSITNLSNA

[3] = biological target: T3, GFP-SBNO1 (human Strawberry Notch 1, GFP-tagged) (human) (UniProt A3KN83)
T3 sequence: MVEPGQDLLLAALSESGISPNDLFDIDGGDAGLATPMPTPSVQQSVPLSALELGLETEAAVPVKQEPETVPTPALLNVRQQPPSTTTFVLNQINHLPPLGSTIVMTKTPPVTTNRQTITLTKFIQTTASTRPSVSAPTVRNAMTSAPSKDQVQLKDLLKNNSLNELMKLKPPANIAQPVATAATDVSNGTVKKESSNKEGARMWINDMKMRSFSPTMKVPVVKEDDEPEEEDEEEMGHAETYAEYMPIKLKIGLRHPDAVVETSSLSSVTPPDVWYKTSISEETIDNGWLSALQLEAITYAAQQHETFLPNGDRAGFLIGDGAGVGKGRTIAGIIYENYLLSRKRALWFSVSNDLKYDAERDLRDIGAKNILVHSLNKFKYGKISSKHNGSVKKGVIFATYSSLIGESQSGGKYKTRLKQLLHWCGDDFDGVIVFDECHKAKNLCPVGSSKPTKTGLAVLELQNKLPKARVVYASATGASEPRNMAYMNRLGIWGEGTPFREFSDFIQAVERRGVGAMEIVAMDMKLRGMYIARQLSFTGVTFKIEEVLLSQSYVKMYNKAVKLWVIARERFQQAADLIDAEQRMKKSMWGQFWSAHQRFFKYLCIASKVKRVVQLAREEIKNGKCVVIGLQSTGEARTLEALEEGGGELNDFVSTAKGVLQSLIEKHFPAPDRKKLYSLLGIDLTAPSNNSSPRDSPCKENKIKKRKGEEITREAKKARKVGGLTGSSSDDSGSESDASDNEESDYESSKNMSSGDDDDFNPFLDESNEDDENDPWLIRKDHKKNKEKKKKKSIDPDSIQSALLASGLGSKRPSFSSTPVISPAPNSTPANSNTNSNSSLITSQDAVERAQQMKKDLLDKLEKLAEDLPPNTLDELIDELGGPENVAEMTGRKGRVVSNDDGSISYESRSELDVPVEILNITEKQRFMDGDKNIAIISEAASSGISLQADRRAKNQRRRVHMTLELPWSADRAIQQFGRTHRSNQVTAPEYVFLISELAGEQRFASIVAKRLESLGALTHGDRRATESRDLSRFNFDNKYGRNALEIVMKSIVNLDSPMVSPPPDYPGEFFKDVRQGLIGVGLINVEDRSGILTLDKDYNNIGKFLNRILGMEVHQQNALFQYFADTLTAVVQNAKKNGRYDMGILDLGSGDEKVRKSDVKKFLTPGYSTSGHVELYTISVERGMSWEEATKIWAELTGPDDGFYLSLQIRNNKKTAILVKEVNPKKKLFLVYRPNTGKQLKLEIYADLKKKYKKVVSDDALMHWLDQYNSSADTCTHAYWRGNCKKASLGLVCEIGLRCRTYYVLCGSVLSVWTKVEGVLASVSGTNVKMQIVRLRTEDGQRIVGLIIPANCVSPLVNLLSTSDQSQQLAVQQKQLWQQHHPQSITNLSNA

FLAG-mTead4 (mouse) = FLAG-mTead4 (mouse) (UniProt Q62296)

Measured: binding

FLAG-mTead4 (from UniProt Q62296 1-427)
binds: [1] | HA-mYap (mouse) | [2]

Myc-mSsrp1 (from UniProt Q08943 1-708)
binds: [3] | [1] | FLAG-mTead4 (mouse)
